# Reference: doi:10.1101/2025.07.01.662673
# Results are given in words; binding and its absence hold for the method and conditions named. In cells and extracts the contact can be indirect. Some binding calls cover weakened binding; strength is not graded here.
# T1: syndecan-4 (human (endogenous in human GECs)) (UniProt P31431)
# T1 sequence: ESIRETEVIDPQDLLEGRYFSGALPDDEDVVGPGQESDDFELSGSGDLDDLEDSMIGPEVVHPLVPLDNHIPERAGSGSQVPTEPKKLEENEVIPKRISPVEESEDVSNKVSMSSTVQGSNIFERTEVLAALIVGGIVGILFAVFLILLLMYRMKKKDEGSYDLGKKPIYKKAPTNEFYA
# T2: Kallikrein-related peptidase 8 (human) (UniProt O60259)
# T2 sequence: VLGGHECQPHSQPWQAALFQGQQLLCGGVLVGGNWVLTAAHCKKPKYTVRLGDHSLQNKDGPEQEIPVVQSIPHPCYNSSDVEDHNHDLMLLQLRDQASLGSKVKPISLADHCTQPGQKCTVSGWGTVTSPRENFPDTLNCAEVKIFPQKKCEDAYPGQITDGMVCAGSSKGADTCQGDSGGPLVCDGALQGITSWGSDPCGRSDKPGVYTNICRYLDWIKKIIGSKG
# How the values were obtained:
# [1] = biological target: T1, syndecan-4 (human (endogenous in human GECs)); test: co-IP
# [2] = biological target: T2, Kallikrein-related peptidase 8 (human); test: co-IP
binding [1],binding [2],Binder
binds,,"Kallikrein-related peptidase 8 (enzyme, UniProt O60259 33-260) VLGGHECQPHSQPWQAALFQGQQLLCGGVLVGGNWVLTAAHCKKPKYTVRLGDHSLQNKDGPEQEIPVVQSIPHPCYNSSDVEDHNHDLMLLQLRDQASLGSKVKPISLADHCTQPGQKCTVSGWGTVTSPRENFPDTLNCAEVKIFPQKKCEDAYPGQITDGMVCAGSSKGADTCQGDSGGPLVCDGALQGITSWGSDPCGRSDKPGVYTNICRYLDWIKKIIGSKG"
,binds,"syndecan-4 (protein, UniProt P31431 19-198) ESIRETEVIDPQDLLEGRYFSGALPDDEDVVGPGQESDDFELSGSGDLDDLEDSMIGPEVVHPLVPLDNHIPERAGSGSQVPTEPKKLEENEVIPKRISPVEESEDVSNKVSMSSTVQGSNIFERTEVLAALIVGGIVGILFAVFLILLLMYRMKKKDEGSYDLGKKPIYKKAPTNEFYA"
